# Results reported in patent publication US20220000811A1, “COMPOSITION FOR PROMOTING HAIR GROWTH COMPRISING A GUANINE DERIVATIVE” (KOREA RESEARCH INSTITUTE OF BIOSCIENCE AND BIOTECHNOLOGY, priority 2019, published 2022).
# At least one structure is not confirmed: it was looked up by name or label, or the drawing left a doubt.
# Tests used:
# Format in all cases: in vivo, mouse
# [1] = test system: HK2, LDHA, NDUS3, ATP5B, Wnt1a, Lef-1, Gli-1, versican; assay: Expression of genes related to metabolism and hair regeneration in skin tissue
# Description: (§1) During the hair telogen phase, the hair on the dorsal skin of 7-week-old C57BL/6 mice (Dae Han BioLink, Chungbuk, Republic of Korea) was depilated using an animal clipper and wax (Veet, Oxy Reckitt Benckiser, Seoul, Republic of Korea). From the next day, 200 μL of placebo (control), 1% IM, 1% minoxidil, or 1% metformin was applied daily to the depilated area using a sterile cotton swab. Images of each animal were captured daily, and the degree of darkness of the color on dorsal skin was quantified in the same area (1.6 cm×3 cm) using the Image J program. The mice were sacrificed, and skin tissues on days 0, 7, 14, and 20 were obtained. Half of the tissues were used for RNA isolation, and the other half were fixed with 4% paraformaldehyde overnight for histochemical analysis. The level of expression of genes related to metabolism and hair regeneration was analyzed through the skin tissue of each mouse group.
# [2] = test system: K15/β-catenin, Ki67/Shh, K15/PDK, Ki67/PDH populations; assay: FACS analysis of single skin cells
# Description: as §1, with “After the mice were perfused with PBS” for “The level of expression of genes related”, “remove blood,” for “metabolism and hair regeneration was analyzed through”, “was harvested and cut into small pieces. The tissue was digested with trypsin (Thermo Fisher Scientific) at 37° C. for 150 minutes, then filtered through a 75 μm nylon mesh, followed by filtering through a 30 μm mesh (BD Biosciences). Single cells were fixed, permeabilized, and blocked according to the immunostaining protocol. The cells were stained with specific antibodies (Table 1 above) and analyzed with BD Accuri™ C6 (BD Biosciences)” for “of each mouse group.”
# [3] = test system: K15, β-catenin, Ki67, Shh, PDK, PDH; assay: Histochemical (immunostaining) analysis of skin markers
# Description: as §1, with “tissues fixed in Example 1.1. were immersed in 30% sucrose, and then embedded in an OCT compound (Sakura Finetek USA Inc, Torrance, Calif., USA). Frozen fragments were obtained using a cryostat sectioning device (Leica, Wetzlar, Germany) and stained using hematoxylin (Sigma) and eosin (Sigma) (H&E), or each” for “level”, “the antibodies shown in Table 1 below. Immunohistochemical analysis was performed,” for “expression of genes related to metabolism”, “fluorescence images were taken with an Olympus microscope (Olympus)” for “hair regeneration was analyzed through the skin tissue of each mouse group.”
# [4] = test system: hair follicles; assay: Quantitative histomorphometric analysis of hair follicle cycle and number (H&E); settings: day 20
# Description: During the hair telogen phase, the hair on the dorsal skin of 7-week-old C57BL/6 mice (Dae Han BioLink, Chungbuk, Republic of Korea) was depilated using an animal clipper and wax (Veet, Oxy Reckitt Benckiser, Seoul, Republic of Korea). From the next day, 200 μL of placebo (control), 1% IM, 1% minoxidil, or 1% metformin was applied daily to the depilated area using a sterile cotton swab. Images of each animal were captured daily, and the degree of darkness of the color on dorsal skin was quantified in the same area (1.6 cm×3 cm) using the Image J program. The mice were sacrificed, and skin tissues on days 0, 7, 14, and 20 were obtained. Half of the tissues were used for RNA isolation, and the other half were fixed with 4% paraformaldehyde overnight for histochemical analysis. […] Immunohistochemical analysis was performed, and fluorescence images were taken with an Olympus microscope (Olympus) According to the guidelines for accurately classifying the hair cycle stages, the hair cycle was quantified by classifying individual hair follicles with H&E staining micrographs in the longitudinal section of each mouse (n>10). The percentage of the anagen phase of the hair was calculated for each group. Hair follicles in the same area (1300 μm width) were counted by H&E staining micrographs in the cross section of each mouse (n>10).
compound,measurement,setting,value
"Nc1cc(N2CCCCC2)nc(N)[n+]1[O-] [minoxidil, reference compound]","expression of Wnt1a, Lef-1, and Gli-1 compared to control","[1]; day 7, skin",slightly increased
same,stemness-related genes compared to control,"[1]; day 20, skin",significantly induced
same,expression of OXPHOS-related enzymes (NDUS3 and ATP5B) compared to control,"[1]; day 20, skin tissue",increased
same,expression of glycolysis-related enzymes (HK2 and LDHA) compared to control,"[1]; day 20, skin tissue",significantly increased
same,K15+/PDK+ population in single skin cells,"[2]; day 7, FACS",not detected
same,PDK+ cell population and Ki67+ cell population,"[2]; day 20, FACS",increased
same,separated populations of PDH+ cells and K15+ cells,"[2]; day 20, FACS",increased
same,PDK expression in K15-positive stem cells,[3]; day 7,not detected
same,Sonic hedgehog (Shh) detection,[3]; day 20,clearly detected
same,number of hair follicles compared to control,[4],significantly higher
